Measured values published in article PMC13384758.
These are yes or no findings as the source states them, for the method shown. In cells and extracts the contact can be indirect. Some entries that bind do so weakly or less than the wild type.

Chains of the proteins cited; added tags and fusions are not shown.
UniProt P01106: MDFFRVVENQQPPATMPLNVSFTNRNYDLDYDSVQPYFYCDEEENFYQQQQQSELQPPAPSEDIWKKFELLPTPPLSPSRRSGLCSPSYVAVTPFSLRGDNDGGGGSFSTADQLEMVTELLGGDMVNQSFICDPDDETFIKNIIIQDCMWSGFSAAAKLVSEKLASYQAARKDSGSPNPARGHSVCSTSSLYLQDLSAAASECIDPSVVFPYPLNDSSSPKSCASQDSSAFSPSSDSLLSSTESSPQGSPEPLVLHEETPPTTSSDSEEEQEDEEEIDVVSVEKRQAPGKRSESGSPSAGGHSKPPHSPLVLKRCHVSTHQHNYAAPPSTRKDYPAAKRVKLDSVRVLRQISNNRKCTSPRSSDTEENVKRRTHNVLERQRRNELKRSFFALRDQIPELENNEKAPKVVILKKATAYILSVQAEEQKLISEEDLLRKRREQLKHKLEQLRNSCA

Biological target: T1, MED30 (human) (UniProt Q96HR3)
T1 sequence: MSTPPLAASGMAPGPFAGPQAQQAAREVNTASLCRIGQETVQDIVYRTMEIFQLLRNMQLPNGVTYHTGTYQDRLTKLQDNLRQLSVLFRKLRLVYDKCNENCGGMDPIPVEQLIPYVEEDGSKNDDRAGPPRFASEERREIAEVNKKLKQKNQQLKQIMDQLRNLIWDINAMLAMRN
Assay: co-IP; Mia PaCa-2 cells cross-linked with 1 mM EGS for 20 min at room temperature, quenched with glycine; lysis in 150 mM NaCl, 20 mM Tris-Cl pH 7.4, 1% Triton X-100; 1 ug antibody overnight at 4 C, Protein A/G magnetic beads; immunoblot

Substance: MYC (from UniProt P01106 1-454)
- binding: binds
